# The list shows a part of the results. Many values rest on one well or one pass, so single values are uncertain.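 Imaging used 1,536-well plates; nuclei positive for cleaved PARP by antibody were divided by total DNA-stained nuclei to yield the apoptosis fraction. Doses for screening kept most cells viable, and cell lines differ markedly in resting and induced cleaved-PARP levels.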
# System: UACC257
# Assay: cleaved PARP positive nuclei fraction relative to DMSO control; melanoma cells; higher = more apoptosis
# Details: library dose: low library concentration; 72 h
row,SMILES,cleaved PARP positive nuclei fraction [%]
1,"NC(=O)Nc1cc(-c2cccc(F)c2)sc1C(=O)N[C@H]1CCCNC1 + Oc1cc(-c2nc(-c3ccccc3)[nH]c2-c2ccncc2)ccc1Cl [L779450] (first compound 0.02 µM, partner dose 0.2 µM)",131
2,"C#Cc1cccc(Nc2ncnc3cc(OCCOC)c(OCCOC)cc23)c1 [erlotinib] + c1cc(-c2cnn3cc(-c4ccc(OCCN5CCCCC5)cc4)cnc23)ccn1 [Dorsomorphin] (first compound 0.8 µM, partner dose 0.4 µM)",221
3,"O=C(CCCCCCC(=O)Nc1ccccc1)NO [vorinostat] + CC(C)CCN1c2nc(Nc3cc(F)c(O)c(F)c3)ncc2N(C)C(=O)C1C [BID1870] (first compound 0.08 µM, partner dose 0.2 µM)",103
4,"C#Cc1cccc(Nc2ncnc3cc(OCCOC)c(OCCOC)cc23)c1 [erlotinib] + CCCCCCCCCCCC1=C(O)C(=O)C=C(O)C1=O [Embelin] (first compound 0.8 µM, partner dose 1.2 µM)",66.4
5,"Cn1nnc2c(C(N)=O)ncn2c1=O [temozolomide] + CC(C)CCN1c2nc(Nc3cc(F)c(O)c(F)c3)ncc2N(C)C(=O)C1C [BID1870] (first compound 2 µM, partner dose 0.2 µM)",78.3
6,"C#Cc1cccc(Nc2ncnc3cc(OCCOC)c(OCCOC)cc23)c1 [erlotinib] + O=C(O)C(=O)Nc1sc2c(c1C(=O)O)CCNC2 [TCS401] (first compound 0.8 µM, partner dose 1.66667 µM)",166
7,"Cn1c(Nc2ccc(C(F)(F)F)cc2)nc2cc(Oc3ccnc(-c4ncc(C(F)(F)F)[nH]4)c3)ccc21 + CCc1ccc(CCOc2ccc(CC3SC(=O)NC3=O)cc2)nc1 [pioglitazone] (first compound 0.08 µM, partner dose 2 µM)",954
8,"OCCn1cc(-c2cnc3nnn(Cc4ccc5ncccc5c4)c3n2)cn1 + N#Cc1c(O)c2c(-c3ccc(-c4ccccc4O)cc3)csc2[nH]c1=O [A769662] (first compound 1 µM, partner dose 2 µM)",211
9,"C=CCn1c(=O)c2cnc(Nc3ccc(N4CCN(C)CC4)cc3)nc2n1-c1cccc(C(C)(C)O)n1 + O=C(O)C(=O)Nc1sc2c(c1C(=O)O)CCNC2 [TCS401] (first compound 0.02 µM, partner dose 1.66667 µM)",93
10,"Cn1nnc2c(C(N)=O)ncn2c1=O [temozolomide] + COC(=O)c1sccc1S(=O)(=O)Nc1ccc(Nc2ccccc2)cc1OC [GSK0660] (first compound 2 µM, partner dose 1 µM)",108
11,"C[C@@H]1CCN(C(=O)CC#N)C[C@@H]1N(C)c1ncnc2[nH]ccc12 + Oc1nc(-c2ccc(C(F)(F)F)cc2)nc2c1CSCC2 [XAV939] (first compound 1 µM, partner dose 2 µM)",79.6
12,"COCC[n+]1c2c(n(Cc3cnccn3)c1C)C(=O)c1ccccc1C2=O + O=C(O)C(=O)Nc1sc2c(c1C(=O)O)CCNC2 [TCS401] (first compound 0.0004 µM, partner dose 1.66667 µM)",63.6
13,"O=C(CCCCCCC(=O)Nc1ccccc1)NO [vorinostat] + Oc1nc(-c2ccc(C(F)(F)F)cc2)nc2c1CSCC2 [XAV939] (first compound 0.08 µM, partner dose 2 µM)",130
14,"COc1cc(Nc2ncc(F)c(Nc3ccc4c(n3)NC(=O)C(C)(C)O4)n2)cc(OC)c1OC [Tamatinib] + COc1ccc(COc2ccc(Cc3cnc(N)nc3N)cc2OC)cc1 [GW2580] (first compound 0.4 µM, partner dose 1 µM)",109
15,"Cc1nc(Nc2ncc(C(=O)Nc3c(C)cccc3Cl)s2)cc(N2CCN(CCO)CC2)n1 [dasatanib] + CCc1ccc(CCOc2ccc(CC3SC(=O)NC3=O)cc2)nc1 [pioglitazone] (first compound 0.004 µM, partner dose 2 µM)",137
16,"Cc1cc(N2CCOCC2)cc2[nH]c(-c3c(NC[C@@H](O)c4cccc(Cl)c4)cc[nH]c3=O)nc12 + Cn1cc(/C=C2\C(=O)Nc3cccnc32)c2ccccc21 [GW441756] (first compound 0.2 µM, partner dose 0.4 µM)",60.2

# A few values from the results shown:
# O=C(CCCCCCC(=O)Nc1ccccc1)NO [vorinostat] + CC(C)CCN1c2nc(Nc3cc(F)c(O)c(F)c3)ncc2N(C)C(=O)C1C [BID1870] (first compound 0.08 µM, partner dose 0.2 µM) | cleaved PARP positive nuclei fraction [%]: 103
# NC(=O)Nc1cc(-c2cccc(F)c2)sc1C(=O)N[C@H]1CCCNC1 + Oc1cc(-c2nc(-c3ccccc3)[nH]c2-c2ccncc2)ccc1Cl [L779450] (first compound 0.02 µM, partner dose 0.2 µM) | cleaved PARP positive nuclei fraction [%]: 131
